No constants are given. Whether binding was seen depends on the method and setting. Binding seen in cells or lysates may run through a third protein. Some binding calls cover weakened binding; strength is not graded here.
Target: endogenous TDP‐43 of N2a cells (mouse (endogenous in N2a)) (UniProt Q921F2)
Experiment: co-IP; N2a cells transfected with HA‐tagged PDI forms, 1 mM H2O2 for 1 h; endogenous TDP‐43 precipitated with anti‐TDP‐43 antibody beads, blot with anti‐HA

By UniProt entry, the sequences of proteins in these tests, tags left out. Where a name states a change or a piece, a line headed by the entry shows the natural chain unless it says otherwise. Chains listed by the source or under a name are the forms on record and can include a tag or linker. Residues count along the entry.
UniProt Q921F2: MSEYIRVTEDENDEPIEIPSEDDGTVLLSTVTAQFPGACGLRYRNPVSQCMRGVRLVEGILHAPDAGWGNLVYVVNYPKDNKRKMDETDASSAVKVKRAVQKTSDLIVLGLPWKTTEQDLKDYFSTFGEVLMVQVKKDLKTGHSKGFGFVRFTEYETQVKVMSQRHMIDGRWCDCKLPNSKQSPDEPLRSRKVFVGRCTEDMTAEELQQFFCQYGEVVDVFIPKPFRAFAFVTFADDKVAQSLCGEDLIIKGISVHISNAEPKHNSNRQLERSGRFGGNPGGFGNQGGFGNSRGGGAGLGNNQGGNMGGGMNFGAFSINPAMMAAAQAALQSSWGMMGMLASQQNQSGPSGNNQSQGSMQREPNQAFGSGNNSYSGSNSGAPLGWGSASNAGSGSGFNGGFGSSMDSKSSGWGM
HA‐tagged wild‐type PDI in N2a cells (P07237, residues 18-508): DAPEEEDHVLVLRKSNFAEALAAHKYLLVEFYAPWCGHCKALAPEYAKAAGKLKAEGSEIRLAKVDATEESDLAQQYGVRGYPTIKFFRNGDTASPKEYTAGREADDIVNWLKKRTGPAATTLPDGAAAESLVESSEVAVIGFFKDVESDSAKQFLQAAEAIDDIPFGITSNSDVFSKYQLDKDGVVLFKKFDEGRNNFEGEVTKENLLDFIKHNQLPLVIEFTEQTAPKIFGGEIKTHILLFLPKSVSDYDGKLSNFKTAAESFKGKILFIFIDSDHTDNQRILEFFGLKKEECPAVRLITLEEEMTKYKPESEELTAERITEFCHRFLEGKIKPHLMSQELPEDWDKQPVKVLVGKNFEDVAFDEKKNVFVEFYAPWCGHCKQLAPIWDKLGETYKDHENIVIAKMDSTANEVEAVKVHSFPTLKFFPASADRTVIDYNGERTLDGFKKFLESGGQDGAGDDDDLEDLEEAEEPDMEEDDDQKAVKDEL
HA‐tagged dnPDI in N2a cells (P07237, form named): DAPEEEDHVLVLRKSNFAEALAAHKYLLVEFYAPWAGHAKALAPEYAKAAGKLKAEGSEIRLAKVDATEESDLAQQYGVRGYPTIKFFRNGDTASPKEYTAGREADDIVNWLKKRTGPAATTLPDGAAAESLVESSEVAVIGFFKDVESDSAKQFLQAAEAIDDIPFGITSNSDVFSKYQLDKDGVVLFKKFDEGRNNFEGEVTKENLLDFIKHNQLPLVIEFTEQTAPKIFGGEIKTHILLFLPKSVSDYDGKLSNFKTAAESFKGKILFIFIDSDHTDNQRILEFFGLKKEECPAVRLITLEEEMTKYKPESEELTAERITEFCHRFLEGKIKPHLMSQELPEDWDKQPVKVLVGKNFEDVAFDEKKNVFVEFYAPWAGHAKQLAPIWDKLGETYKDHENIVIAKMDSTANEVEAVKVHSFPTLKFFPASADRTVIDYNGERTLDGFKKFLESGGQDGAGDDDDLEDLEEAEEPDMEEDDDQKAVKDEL

With “HA‐tagged wild‐type PDI in N2a cells (from UniProt P07237 18-508) (enzyme)” the binding was “binds”.

With “HA‐tagged dnPDI in N2a cells (from UniProt P07237 18-508) (enzyme)” the binding was “binds”.

Source: paper PMC13336076
